This is an account of results in paper PMC5727187.

For the test, the target named is T1, BcsA^HA-FLAG (recombinant, BL21) (E. coli 1094) (UniProt P37653).
T1 sequence: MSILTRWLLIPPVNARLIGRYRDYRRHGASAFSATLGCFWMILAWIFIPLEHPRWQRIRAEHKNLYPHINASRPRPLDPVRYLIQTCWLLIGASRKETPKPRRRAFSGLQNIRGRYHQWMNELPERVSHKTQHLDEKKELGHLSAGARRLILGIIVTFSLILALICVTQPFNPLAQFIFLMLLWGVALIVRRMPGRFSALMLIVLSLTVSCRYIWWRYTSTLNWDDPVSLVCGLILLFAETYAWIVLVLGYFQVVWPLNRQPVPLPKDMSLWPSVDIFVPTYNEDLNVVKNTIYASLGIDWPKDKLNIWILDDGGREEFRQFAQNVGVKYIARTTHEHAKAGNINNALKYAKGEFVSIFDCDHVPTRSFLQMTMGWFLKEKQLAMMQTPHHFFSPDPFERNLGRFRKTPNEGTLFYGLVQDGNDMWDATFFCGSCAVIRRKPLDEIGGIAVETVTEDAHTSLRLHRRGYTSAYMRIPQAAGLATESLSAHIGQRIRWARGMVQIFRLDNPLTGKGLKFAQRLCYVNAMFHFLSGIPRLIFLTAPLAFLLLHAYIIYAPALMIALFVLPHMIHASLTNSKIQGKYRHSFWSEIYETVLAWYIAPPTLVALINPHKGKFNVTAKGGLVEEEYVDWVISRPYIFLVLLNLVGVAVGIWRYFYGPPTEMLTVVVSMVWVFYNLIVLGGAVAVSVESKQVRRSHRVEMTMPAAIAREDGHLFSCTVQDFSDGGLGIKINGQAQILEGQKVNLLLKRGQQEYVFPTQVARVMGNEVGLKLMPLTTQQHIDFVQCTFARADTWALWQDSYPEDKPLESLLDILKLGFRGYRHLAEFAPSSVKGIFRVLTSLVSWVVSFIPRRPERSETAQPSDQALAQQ
The experiment in a line: co-IP; Anti-FLAG purification and glycerol gradient of the inner membrane subcomplex expressed in BL21 (DE3) from bcs^HisRQA^HA-FLAGB-pCDF-Duet alone (no bcsEFG); SDS-PAGE and western blot.

No constants are given. Whether binding was seen depends on the method and setting. In cells and extracts the contact can be indirect. Some entries that bind do so weakly or less than the wild type. Where a sequence is shown, tags or fusion partners need not be part of it.

B1: BcsB (recombinant, BL21) (protein, UniProt P37652 26-779)
chain: TPATQPLINAEPAVAAQTEQNPQVGQVMPGVQGADAPVVAQNGPSRDVKLTFAQIAPPPGSMVLRGINPNGSIEFGMRSDEVVTKAMLNLEYTPSPSLLPVQSQLKVYLNDELMGVLPVTKEQLGKKTLAQMPINPLFISDFNRVRLEFVGHYQDVCEKPASTTLWLDVGRSSGLDLTYQTLNVKNDLSHFPVPFFDPSDNRTNTLPMVFAGAPDVGLQQASAIVASWFGSRSGWRGQNFPVLYNQLPDRNAIVFATNDKRPDFLRDHPAVKAPVIEMINHPQNPYVKLLVVFGRDDKDLLQAAKGIAQGNILFRGESVVVNEVKPLLPRKPYDAPNWVRTDRPVTFGELKTYEEQLQSSGLEPAAINVSLNLPPDLYLMRSTGIDMDINYRYTMPPVKDSSRMDISLNNQFLQSFNLSSKQEANRLLLRIPVLQGLLDGKTDVSIPALKLGATNQLRFDFEYMNPMPGGSVDNCITFQPVQNHVVIGDDSTIDFSKYYHFIPMPDLRAFANAGFPFSRMADLSQTITVMPKAPNEAQMETLLNTVGFIGAQTGFPAINLTVTDDGSTIQGKDADIMIIGGIPDKLKDDKQIDLLVQATESWVKTPMRQTPFPGIVPDESDRAAETRSTLTSSGAMAAVIGFQSPYNDQRSVIALLADSPRGYEMLNDAVNDSGKRATMFGSVAVIRESGINSLRVGDVYYVGHLPWFERVWYALANHPILLAVLAAISVILLAWVLWRLLRIISRRRLNPDNE
For the molecule B1, the binding result was “binds”.
